No constants are given. Whether binding was seen depends on the method and setting. For some of these results: In cells and extracts the contact can be indirect. Some results given as binding are weak or reduced against the parent protein; the word gives no strength. Values belong to the molecule of their own block, whether it stands above or below them.
Tests used:
[1] = biological target: T1, Carnitine palmitoyltransferase 1A (CPT1A) (human (endogenous in LX2)) (UniProt P50416); experiment: co-IP; endogenous proteins in LX2 cell lysate; antibody to the target protein, Protein A/G beads, SDS-PAGE and Western blot; cells treated with DATs (10 µM, 24 h), with CPT1A siRNA or negative control siRNA
T1 sequence: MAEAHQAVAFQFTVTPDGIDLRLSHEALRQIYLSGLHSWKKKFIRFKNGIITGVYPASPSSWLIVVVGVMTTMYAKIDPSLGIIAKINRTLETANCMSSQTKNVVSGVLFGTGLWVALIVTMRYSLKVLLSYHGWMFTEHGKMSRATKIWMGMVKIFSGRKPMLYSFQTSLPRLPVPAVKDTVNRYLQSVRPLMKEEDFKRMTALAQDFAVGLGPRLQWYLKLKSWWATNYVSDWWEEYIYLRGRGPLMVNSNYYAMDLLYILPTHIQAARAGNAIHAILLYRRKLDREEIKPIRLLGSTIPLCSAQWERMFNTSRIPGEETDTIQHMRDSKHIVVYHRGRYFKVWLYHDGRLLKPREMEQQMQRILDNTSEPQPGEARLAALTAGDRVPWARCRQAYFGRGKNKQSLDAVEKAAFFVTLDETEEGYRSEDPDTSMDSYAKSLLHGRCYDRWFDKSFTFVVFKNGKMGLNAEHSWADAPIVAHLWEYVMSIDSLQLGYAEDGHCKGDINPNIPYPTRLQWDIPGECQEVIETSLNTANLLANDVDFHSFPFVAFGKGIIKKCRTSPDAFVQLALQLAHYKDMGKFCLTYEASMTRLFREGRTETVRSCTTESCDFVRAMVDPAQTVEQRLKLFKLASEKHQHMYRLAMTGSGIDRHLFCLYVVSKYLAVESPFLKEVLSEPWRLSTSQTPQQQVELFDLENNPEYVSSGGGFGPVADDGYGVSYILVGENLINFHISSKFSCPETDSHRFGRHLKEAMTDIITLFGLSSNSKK

Amino acid sequences for entries named in this document (tags omitted).
UniProt Q9NP72: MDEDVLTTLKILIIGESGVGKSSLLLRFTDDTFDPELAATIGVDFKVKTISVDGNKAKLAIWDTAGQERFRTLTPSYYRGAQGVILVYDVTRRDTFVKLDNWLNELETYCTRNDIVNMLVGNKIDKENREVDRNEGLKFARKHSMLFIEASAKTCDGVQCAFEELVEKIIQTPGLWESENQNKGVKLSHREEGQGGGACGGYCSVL

[2] = biological target: T2, dihydrolipoamide dehydrogenase (DLD) (human (endogenous in LX2)), P09622; experiment: immunoblotting of oligomerized protein; immunoblot of oligomerized DLD in LX2 lysate; cells treated with DATs (10 µM, 24 h), with or without transfection of FLAG-tagged DLD-320R; conditions: remark: other sources report otherwise
T2 chain: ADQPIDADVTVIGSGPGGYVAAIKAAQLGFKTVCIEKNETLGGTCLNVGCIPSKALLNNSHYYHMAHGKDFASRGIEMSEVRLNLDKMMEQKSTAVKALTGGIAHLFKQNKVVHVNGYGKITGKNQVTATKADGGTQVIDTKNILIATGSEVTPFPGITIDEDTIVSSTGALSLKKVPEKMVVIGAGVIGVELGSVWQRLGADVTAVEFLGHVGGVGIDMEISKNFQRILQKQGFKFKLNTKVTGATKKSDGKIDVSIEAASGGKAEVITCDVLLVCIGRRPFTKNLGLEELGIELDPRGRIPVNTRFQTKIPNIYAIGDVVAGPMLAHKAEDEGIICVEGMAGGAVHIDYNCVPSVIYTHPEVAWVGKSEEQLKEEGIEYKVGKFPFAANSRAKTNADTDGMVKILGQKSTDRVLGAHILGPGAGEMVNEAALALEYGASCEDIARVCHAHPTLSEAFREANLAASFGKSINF

[3] = biological target: DLAT (mouse liver) (mouse (endogenous in liver tissue)) (UniProt Q8BMF4); experiment: immunoblotting of oligomerized protein; immunoblot of oligomerized DLAT in liver tissue of CCl4/BDL mouse fibrosis models (Vehicle, RAB18-KD, DATs) and in primary mouse HSCs
[4] = biological target: Dihydrolipoamide Acetyltransferase (DLAT) (human (endogenous in LX2)) (UniProt P10515); experiment: native gel or EMSA; nondenaturing gel electrophoresis and immunoblot of DLAT oligomers in LX2 lysate; cells treated with DATs (0–10 µM, 24 h), also Elesclomol-Cu, TTM, GSH, DEM, rapamycin, CQ, 3-MA or siRNAs

Molecule: Ras‐related protein Rab‐18 (RAB18) (from UniProt Q9NP72 1-206)
binding [1]: binds

B1: dihydrolipoamide dehydrogenase (DLD), P09622 36-509 (enzyme)
chain: T2 chain
binding [2]: binds

Results, then the molecule that gave them:

binding [3]: binds
B2: DLAT (mouse liver) (enzyme, UniProt Q8BMF4 86-642)
chain: SLPPHQKVPLPSLSPTMQAGTIARWEKKEGEKISEGDLIAEVETDKATVGFESLEECYMAKILVPEGTRDVPVGSIICITVEKPQDIEAFKNYTLDLAAAAAPQAAPAAAPAPAAAPAAPSASAPGSSYPTHMQIVLPALSPTMTMGTVQRWEKKVGEKLSEGDLLAEIETDKATIGFEVQEEGYLAKILVPEGTRDVPLGAPLCIIVEKQEDIAAFADYRPTEVTSLKPQAAPPAPPPVAAVPPTPQPVAPTPSAAPAGPKGRVFVSPLAKKLAAEKGIDLTQVKGTGPEGRIIKKDIDSFVPSKAAPAAAAAMAPPGPRVAPAPAGVFTDIPISNIRRVIAQRLMQSKQTIPHYYLSVDVNMGEVLLVRKELNKMLEGKGKISVNDFIIKASALACLKVPEANSSWMDTVIRQNHVVDVSVAVSTPAGLITPIVFNAHIKGLETIASDVVSLASKAREGKLQPHEFQGGTFTISNLGMFGIKNFSAIINPPQACILAIGASEDKLIPADNEKGFDVASVMSVTLSCDHRVVDGAVGAQWLAEFKKYLEKPITMLL

binding [4]: binds
B3: Dihydrolipoamide Acetyltransferase (DLAT) (enzyme, UniProt P10515 87-647)
chain: SLPPHQKVPLPSLSPTMQAGTIARWEKKEGDKINEGDLIAEVETDKATVGFESLEECYMAKILVAEGTRDVPIGAIICITVGKPEDIEAFKNYTLDSSAAPTPQAAPAPTPAATASPPTPSAQAPGSSYPPHMQVLLPALSPTMTMGTVQRWEKKVGEKLSEGDLLAEIETDKATIGFEVQEEGYLAKILVPEGTRDVPLGTPLCIIVEKEADISAFADYRPTEVTDLKPQVPPPTPPPVAAVPPTPQPLAPTPSAPCPATPAGPKGRVFVSPLAKKLAVEKGIDLTQVKGTGPDGRITKKDIDSFVPSKVAPAPAAVVPPTGPGMAPVPTGVFTDIPISNIRRVIAQRLMQSKQTIPHYYLSIDVNMGEVLLVRKELNKILEGRSKISVNDFIIKASALACLKVPEANSSWMDTVIRQNHVVDVSVAVSTPAGLITPIVFNAHIKGVETIANDVVSLATKAREGKLQPHEFQGGTFTISNLGMFGIKNFSAIINPPQACILAIGASEDKLVPADNEKGFDVASMMSVTLSCDHRVVDGAVGAQWLAEFRKYLEKPITMLL

Reference: article PMC12140386, “Diallyl Trisulfide From Garlic Regulates RAB18 Phase Separation to Inhibit Lipophagy and Induce Cuproptosis in Hepatic Stellate Cells for Antifibrotic Effects” (Advanced Science, 2025)
